The values that follow come from paper PMC4196186.

Amino acid sequences for entries named in this document (tags omitted).
UniProt Q9H4L4: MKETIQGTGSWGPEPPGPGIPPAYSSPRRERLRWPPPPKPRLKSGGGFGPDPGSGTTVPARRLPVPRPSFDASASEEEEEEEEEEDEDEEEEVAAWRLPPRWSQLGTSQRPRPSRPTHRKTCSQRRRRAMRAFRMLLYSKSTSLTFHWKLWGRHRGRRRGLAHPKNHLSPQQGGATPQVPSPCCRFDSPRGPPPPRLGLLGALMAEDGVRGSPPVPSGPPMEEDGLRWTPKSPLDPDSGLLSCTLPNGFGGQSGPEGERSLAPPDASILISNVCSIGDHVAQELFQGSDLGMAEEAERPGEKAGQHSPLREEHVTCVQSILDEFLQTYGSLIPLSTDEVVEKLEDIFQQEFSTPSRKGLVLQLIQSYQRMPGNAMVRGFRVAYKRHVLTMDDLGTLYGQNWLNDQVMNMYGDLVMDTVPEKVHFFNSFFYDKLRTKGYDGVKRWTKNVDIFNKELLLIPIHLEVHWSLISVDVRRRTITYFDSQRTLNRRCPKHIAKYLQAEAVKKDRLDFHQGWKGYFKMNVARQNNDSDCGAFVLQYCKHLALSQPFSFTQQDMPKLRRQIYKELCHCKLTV

No constants are given. Whether binding was seen depends on the method and setting. Binding seen in cells or lysates may run through a third protein. Some binding calls cover weakened binding; strength is not graded here.

Assay [1] addresses T1, FOXC2, endogenous in MGC803 cells (human (endogenous in MGC803)) (UniProt Q99958).
T1 sequence: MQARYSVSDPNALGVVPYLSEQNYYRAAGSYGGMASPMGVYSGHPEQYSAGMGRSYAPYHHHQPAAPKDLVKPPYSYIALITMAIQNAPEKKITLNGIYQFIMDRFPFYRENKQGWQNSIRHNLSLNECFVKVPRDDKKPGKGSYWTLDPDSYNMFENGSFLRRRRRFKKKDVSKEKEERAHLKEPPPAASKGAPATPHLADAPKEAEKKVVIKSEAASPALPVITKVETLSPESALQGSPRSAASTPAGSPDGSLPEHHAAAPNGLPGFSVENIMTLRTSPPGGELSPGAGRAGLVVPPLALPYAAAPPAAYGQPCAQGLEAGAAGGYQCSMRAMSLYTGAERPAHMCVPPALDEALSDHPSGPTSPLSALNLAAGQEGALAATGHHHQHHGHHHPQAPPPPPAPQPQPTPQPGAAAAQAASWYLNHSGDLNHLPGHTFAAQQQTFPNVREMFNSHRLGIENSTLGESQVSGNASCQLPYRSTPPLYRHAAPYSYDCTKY
Put plainly: co-IP; endogenous proteins in MGC803 cells; bait not stated.

The target in assay [2] is T2, FOXC2 (forkhead box C2; mesenchyme forkhead 1), exogenous, transfected (human) (UniProt Q99958).
T2 sequence: T1 sequence
In words: co-IP; exogenous: HEK293T cells co-transfected with two plasmids; bait not stated.

Take “SENP3, endogenous in MGC803 cells (from UniProt Q9H4L4 1-574) (enzyme)”: the binding result in assay [1] is “binds”.

For the substance “SENP3 (sentrin/SUMO2/3-specific protease), exogenous, transfected (from UniProt Q9H4L4 1-574) (enzyme)”, in assay [2], the binding result was “binds”.
